These results are taken from PMC10556033.

Amino acid sequences for entries named in this document (tags omitted).
UniProt O60573: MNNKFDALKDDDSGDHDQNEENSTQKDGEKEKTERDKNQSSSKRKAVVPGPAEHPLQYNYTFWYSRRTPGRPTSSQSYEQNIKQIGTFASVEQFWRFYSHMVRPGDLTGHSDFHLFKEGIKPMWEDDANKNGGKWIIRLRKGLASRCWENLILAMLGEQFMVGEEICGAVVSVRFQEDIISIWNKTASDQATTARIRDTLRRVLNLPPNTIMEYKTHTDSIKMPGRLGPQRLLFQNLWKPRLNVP

Assay [1] addresses T1, His-tagged MEST N163Q mutant (UniProt Q5EB52).
T1 sequence: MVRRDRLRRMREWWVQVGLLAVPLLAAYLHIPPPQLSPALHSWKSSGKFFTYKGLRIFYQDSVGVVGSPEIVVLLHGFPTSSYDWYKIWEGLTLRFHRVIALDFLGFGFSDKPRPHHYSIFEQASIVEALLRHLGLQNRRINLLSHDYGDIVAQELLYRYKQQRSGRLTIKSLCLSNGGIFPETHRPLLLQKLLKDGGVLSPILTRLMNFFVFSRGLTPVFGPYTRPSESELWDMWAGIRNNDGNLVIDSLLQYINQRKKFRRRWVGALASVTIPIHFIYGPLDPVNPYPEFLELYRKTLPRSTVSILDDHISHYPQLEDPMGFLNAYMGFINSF
As to the kind of experiment: co-IP; lysate of HTR-8/SVneo cells transfected with His-tagged MEST cDNA or His-tagged MEST N163Q; precipitated with anti-His antibody, blotted with anti-eIF4E2.

The target in assay [2] is T2, His-tagged mesoderm-specific transcript (MEST), from MEST cDNA plasmid (UniProt Q5EB52).
T2 sequence (chain, N-glycan with LeY and α1,3-fucosylation at Asn163): T1 sequence with Q163N
Described as above.

Assay [3] deals with eukaryotic initiation factor eIF4E2 (human (endogenous in HTR-8/SVneo)) (UniProt O60573). The assay is described as follows: co-IP; eIF4E2 co-IP from HTR-8/SVneo cells transfected with MEST cDNA or MEST mut (Fig. 5f), or with FUT4 cDNA, FUT4 siRNA or scramble (Fig. 5g); immunoblotting for MEST, 4E-T and GIGYF2.

Residue numbers refer to the chain shown, from its start. Results are given in words; binding and its absence hold for the method and conditions named. Binding seen in cells or lysates may run through a third protein. Some entries that bind do so weakly or less than the wild type. Sequences can lack the tags named with a protein.

Regarding “eukaryotic initiation factor eIF4E2 (from UniProt O60573 1-245)”, the binding result in assay [1] and in assay [2] was “binds” in each case.

B1: Grb10-interacting GYF protein 2 (GIGYF2) (protein, UniProt Q6Y7W6 1-1299)
chain: MAAETQTLNFGPEWLRALSSGGSITSPPLSPALPKYKLADYRYGREEMLALFLKDNKIPSDLLDKEFLPILQEEPLPPLALVPFTEEEQRNFSMSVNSAAVLRLTGRGGGGTVVGAPRGRSSSRGRGRGRGECGFYQRSFDEVEGVFGRGGGREMHRSQSWEERGDRRFEKPGRKDVGRPNFEEGGPTSVGRKHEFIRSESENWRIFREEQNGEDEDGGWRLAGSRRDGERWRPHSPDGPRSAGWREHMERRRRFEFDFRDRDDERGYRRVRSGSGSIDDDRDSLPEWCLEDAEEEMGTFDSSGAFLSLKKVQKEPIPEEQEMDFRPVDEGEECSDSEGSHNEEAKEPDKTNKKEGEKTDRVGVEASEETPQTSSSSARPGTPSDHQSQEASQFERKDEPKTEQTEKAEEETRMENSLPAKVPSRGDEMVADVQQPLSQIPSDTASPLLILPPPVPNPSPTLRPVETPVVGAPGMGSVSTEPDDEEGLKHLEQQAEKMVAYLQDSALDDERLASKLQEHRAKGVSIPLMHEAMQKWYYKDPQGEIQGPFNNQEMAEWFQAGYFTMSLLVKRACDESFQPLGDIMKMWGRVPFSPGPAPPPHMGELDQERLTRQQELTALYQMQHLQYQQFLIQQQYAQVLAQQQKAALSSQQQQQLALLLQQFQTLKMRISDQNIIPSVTRSVSVPDTGSIWELQPTASQPTVWEGGSVWDLPLDTTTPGPALEQLQQLEKAKAAKLEQERREAEMRAKREEEERKRQEELRRQQEEILRRQQEEERKRREEEELARRKQEEALRRQREQEIALRRQREEEERQQQEEALRRLEERRREEEERRKQEELLRKQEEEAAKWAREEEEAQRRLEENRLRMEEEAARLRHEEEERKRKELEVQRQKELMRQRQQQQEALRRLQQQQQQQQLAQMKLPSSSTWGQQSNTTACQSQATLSLAEIQKLEEERERQLREEQRRQQRELMKALQQQQQQQQQKLSGWGNVSKPSGTTKSLLEIQQEEARQMQKQQQQQQQHQQPNRARNNTHSNLHTSIGNSVWGSINTGPPNQWASDLVSSIWSNADTKNSNMGFWDDAVKEVGPRNSTNKNKNNASLSKSVGVSNRQNKKVEEEEKLLKLFQGVNKAQDGFTQWCEQMLHALNTANNLDVPTFVSFLKEVESPYEVHDYIRAYLGDTSEAKEFAKQFLERRAKQKANQQRQQQQLPQQQQQQPPQQPPQQPQQQDSVWGMNHSTLHSVFQTNQSNNQQSNFEAVQSGKKKKKQKMVRADPSLLGFSVNASSERLNMGEIETLDDY
As to B1, the binding result in assay [3] is recorded as “binds”.

B2: His-tagged mesoderm-specific transcript (MEST), from MEST cDNA plasmid (protein, UniProt Q5EB52 1-335)
chain: T1 sequence with Q163N
modifications: N-glycan with LeY and α1,3-fucosylation at Asn163
As to B2, in assay [3], the binding entry is listed as “binds”.

B3: eIF4E-Transporter (4E-T) (protein, UniProt Q9NRA8 1-985)
chain: MDRRSMGETESGDAFLDLKKPPASKCPHRYTKEELLDIKELPHSKQRPSCLSEKYDSDGVWDPEKWHASLYPASGRSSPVESLKKELDTDRPSLVRRIVDPRERVKEDDLDVVLSPQRRSFGGGCHVTAAVSSRRSGSPLEKDSDGLRLLGGRRIGSGRIISARTFEKDHRLSDKDLRDLRDRDRERDFKDKRFRREFGDSKRVFGERRRNDSYTEEEPEWFSAGPTSQSETIELTGFDDKILEEDHKGRKRTRRRTASVKEGIVECNGGVAEEDEVEVILAQEPAADQEVPRDAVLPEQSPGDFDFNEFFNLDKVPCLASMIEDVLGEGSVSASRFSRWFSNPSRSGSRSSSLGSTPHEELERLAGLEQAILSPGQNSGNYFAPIPLEDHAENKVDILEMLQKAKVDLKPLLSSLSANKEKLKESSHSGVVLSVEEVEAGLKGLKVDQQVKNSTPFMAEHLEETLSAVTNNRQLKKDGDMTAFNKLVSTMKASGTLPSQPKVSRNLESHLMSPAEIPGQPVPKNILQELLGQPVQRPASSNLLSGLMGSLEPTTSLLGQRAPSPPLSQVFQTRAASADYLRPRIPSPIGFTPGPQQLLGDPFQGMRKPMSPITAQMSQLELQQAALEGLALPHDLAVQAANFYQPGFGKPQVDRTRDGFRNRQQRVTKSPAPVHRGNSSSPAPAASITSMLSPSFTPTSVIRKMYESKEKSKEEPASGKAALGDSKEDTQKASEENLLSSSSVPSADRDSSPTTNSKLSALQRSSCSTPLSQANRYTKEQDYRPKATGRKTPTLASPVPTTPFLRPVHQVPLVPHVPMVRPAHQLHPGLVQRMLAQGVHPQHLPSLLQTGVLPPGMDLSHLQGISGPILGQPFYPLPAASHPLLNPRPGTPLHLAMVQQQLQRSVLHPPGSGSHAAAVSVQTTPQNVPSRSGLPHMHSQLEHRPSQRSSSPVGLAKWFGSDVLQQPLPSMPAKVISVDELEYRQ
For the molecule B3, the binding entry in assay [3] is listed as “binds”.
